This series is described as follows: general procedure: Fmoc solid-phase peptide synthesis; Macro Crowns (SynPhase HM Series I, Rink Amide Linker); Fmoc-Cys(Trt)-resin / Fmoc-Lys(Boc)-resin (0.5 mmol/g); Rink Ami; PyBOP/HOBt/DIEA (1:1:1.5). As to conditions: for isolated yield: on resin loading.
Where [1] appears, read: whole synthesis, 214 nm, scale of the general procedure 5.3 μmol/crown, 0.25 mmol.
Where [2] appears, read: whole synthesis, scale of the general procedure 5.3 μmol/crown, 0.25 mmol.
Where [3] appears, read: conjugation step, Anal. RP-HPLC, chromatogram integration (λ = 214 nm).

* marks the point of attachment. Biotin = O=C1N[C@H]2[C@H](CS[C@H]2CCCCC(=O)*)N1; βAla = NCCC(=O)O Some results are limits rather than exact numbers.

On to {Biotin-βAla}-RQIKIWFQNRRMK-NH2, for which the “final HPLC purity” value under setting [1] worked out at 75%. This substance also came in with an isolated yield under setting [2] of 67%.

{Biotin-βAla}-RQAKIWFQNRRMKWKK-NH2: the “final HPLC purity” value under setting [1] came out at 80%. This substance showed an isolated yield under setting [2] of 44%.

The substance {Biotin-βAla}-RQIKIWFQNRR-NH2 came in with a conjugation yield (conjugation step) of 57%. In addition, the “final HPLC purity” value is, setting by setting: under setting [3], over 98%; under setting [1], 98%. The substance also gave an isolated yield under setting [2] of 58%.

For the substance {Biotin-βAla}-RQIKIWAQNRRMKWKK-NH2, under setting [1], the “final HPLC purity” value was found to be 78%. Moreover, under setting [2], the isolated yield is listed as 47%.

Turning to {Biotin-βAla}-RQIKIWFQNRRMKAKK-NH2, the “final HPLC purity” value under setting [1] was 83%. Under setting [2], this substance displayed an isolated yield of 66%.

For {Biotin-βAla}-RQIKIAFQNRRMKWKK-NH2, the “final HPLC purity” value under setting [1] is recorded as 80%. Besides, the isolated yield under setting [2] was determined as 52%.

In the case of {Biotin-βAla}-RQIKIWFANRRMKWKK-NH2, the “final HPLC purity” value under setting [1] is recorded as 79%. Besides, the isolated yield under setting [2] came to 49%.

In the case of {Biotin-βAla}-RQIAIWFQNRRMKWKK-NH2, the “final HPLC purity” value under setting [1] is 76%. This substance yielded an isolated yield under setting [2] of 48%.

With {Biotin-βAla}-RRMKWKK-NH2, the “final HPLC purity” value under setting [1] was 94%. Besides, the isolated yield under setting [2] came to 73%.

With {Biotin-βAla}-RQIKIWFQNRRMKWK-NH2, the “final HPLC purity” value under setting [1] is 78%. The substance further gave an isolated yield under setting [2] of 53%.

With {Biotin-βAla}-RQIKAWFQNRRMKWKK-NH2, the “final HPLC purity” value under setting [1] worked out at 80%. The isolated yield under setting [2] came to 51%.

Consider {Biotin-βAla}-RAIKIWFQNRRMKWKK-NH2, for which, under setting [1], the “final HPLC purity” value came to 79%. In addition, the isolated yield under setting [2] is reported as 47%.

Regarding “Biotinyl-βAla-Arg-Gln-Ile-Lys-Ile-Trp-Phe-Gln-Asn-Arg-Arg-Met-Lys-Trp-Lys-Lys-NH2 (ARQIKIWFQNRRMKWKK; N-terminal biotin, beta-residue; C-terminal amide; MOD_RES (1) bAla)”, the “final HPLC purity” value under setting [1] was 78%. Under setting [2], the isolated yield amounted to 50%.

{Biotin-βAla}-RQIKIW-NH2 showed a conjugation yield (conjugation step) of 46%. The “final HPLC purity” value is recorded as over 98% under setting [3] and 93% under setting [1]. The same substance registered an isolated yield under setting [2] of 53%.

Regarding {Biotin-βAla}-RQIKIWFQARRMKWKK-NH2, under setting [1], the “final HPLC purity” value is given as 75%. The substance further had an isolated yield under setting [2] of 43%.

As to {Biotin-βAla}-RQIKIWFQNRRMKWKA-NH2, the “final HPLC purity” value under setting [1] turned out to be 73%. Besides, the isolated yield under setting [2] is reported as 76%.

On to {Biotin-βAla}-RQIKIWFQNRRMAWKK-NH2, for which, under setting [1], the “final HPLC purity” value stood at 79%. The same substance came in with an isolated yield under setting [2] of 52%.

{Biotin-βAla}-RQIKIWFQNARMKWKK-NH2: the “final HPLC purity” value under setting [1] is given as 77%. Besides, under setting [2], the isolated yield worked out at 43%.

With {Biotin-βAla}-RQIKIWFQNRRMKWAK-NH2, the “final HPLC purity” value under setting [1] was 78%. Moreover, the isolated yield under setting [2] is listed as 68%.

As to {Biotin-βAla}-AQIKIWFQNRRMKWKK-NH2, the “final HPLC purity” value under setting [1] is 66%. In addition, the isolated yield under setting [2] amounted to 44%.

For {Biotin-βAla}-RQIKIWFQNRRAKWKK-NH2, the “final HPLC purity” value under setting [1] came to 96%. This substance also returned an isolated yield under setting [2] of 49%.

In the case of {Biotin-βAla}-QNRRMKWKK-NH2, the “final HPLC purity” value under setting [1] came out at 93%. Also, the isolated yield under setting [2] was 67%.

Consider {Biotin-βAla}-RQIKIWFQNRAMKWKK-NH2, for which the “final HPLC purity” value under setting [1] was found to be 77%. Also, under setting [2], the isolated yield stood at 58%.

As for {Biotin-βAla}-RMKWKK-NH2, the “final HPLC purity” value under setting [1] stood at 96%. Moreover, under setting [2], the isolated yield worked out at 81%.

For {Biotin-βAla}-NRRMKWKK-NH2, under setting [1], the “final HPLC purity” value worked out at 93%. The isolated yield under setting [2] is given as 57%.

Take {Biotin-βAla}-RQIKIWFQNRRMKW-NH2: under setting [1], the “final HPLC purity” value was found to be 79%. Besides, the isolated yield under setting [2] was determined as 40%.

As to {Biotin-βAla}-RQIKIWFQN-NH2, the conjugation yield (conjugation step) amounted to 63%. The “final HPLC purity” value reads like this: under setting [3], over 98%; under setting [1], 95%. The substance also registered an isolated yield under setting [2] of 59%.

Substance {Biotin-βAla}-FQNRRMKWKK-NH2 came in with a conjugation yield (conjugation step) of 97%. Moreover, the “final HPLC purity” value is reported as over 98% under setting [3] and 91% under setting [1]. The isolated yield under setting [2] is 58%.
